The results in this text go back to the supplement of paper PMC12067093, “Discovery and optimisation of a covalent ligand for TRIM25 and its application to targeted protein ubiquitination” (Chemical Science, 2025).

The chains behind the UniProt entries cited, without tags or fusion partners. Where a name states a change or a piece, a line headed by the entry shows the natural chain unless it says otherwise.
UniProt Q9GZT9: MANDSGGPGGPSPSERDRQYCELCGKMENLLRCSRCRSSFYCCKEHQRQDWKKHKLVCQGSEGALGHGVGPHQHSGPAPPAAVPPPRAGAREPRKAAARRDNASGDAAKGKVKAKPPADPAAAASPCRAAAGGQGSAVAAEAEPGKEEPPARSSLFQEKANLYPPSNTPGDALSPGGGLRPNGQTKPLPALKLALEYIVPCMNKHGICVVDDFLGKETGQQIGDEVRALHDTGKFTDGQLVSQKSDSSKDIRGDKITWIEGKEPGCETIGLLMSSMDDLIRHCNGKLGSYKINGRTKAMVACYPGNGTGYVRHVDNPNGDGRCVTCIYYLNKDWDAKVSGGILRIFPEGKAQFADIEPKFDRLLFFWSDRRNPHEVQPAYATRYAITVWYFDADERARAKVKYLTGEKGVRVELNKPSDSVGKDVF
UniProt Q8N9N8: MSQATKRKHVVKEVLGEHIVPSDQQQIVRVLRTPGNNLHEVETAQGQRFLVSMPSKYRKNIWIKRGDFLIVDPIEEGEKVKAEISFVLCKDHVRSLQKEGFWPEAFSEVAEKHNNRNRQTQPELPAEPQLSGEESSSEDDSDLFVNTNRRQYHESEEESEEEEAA
UniProt Q96F86: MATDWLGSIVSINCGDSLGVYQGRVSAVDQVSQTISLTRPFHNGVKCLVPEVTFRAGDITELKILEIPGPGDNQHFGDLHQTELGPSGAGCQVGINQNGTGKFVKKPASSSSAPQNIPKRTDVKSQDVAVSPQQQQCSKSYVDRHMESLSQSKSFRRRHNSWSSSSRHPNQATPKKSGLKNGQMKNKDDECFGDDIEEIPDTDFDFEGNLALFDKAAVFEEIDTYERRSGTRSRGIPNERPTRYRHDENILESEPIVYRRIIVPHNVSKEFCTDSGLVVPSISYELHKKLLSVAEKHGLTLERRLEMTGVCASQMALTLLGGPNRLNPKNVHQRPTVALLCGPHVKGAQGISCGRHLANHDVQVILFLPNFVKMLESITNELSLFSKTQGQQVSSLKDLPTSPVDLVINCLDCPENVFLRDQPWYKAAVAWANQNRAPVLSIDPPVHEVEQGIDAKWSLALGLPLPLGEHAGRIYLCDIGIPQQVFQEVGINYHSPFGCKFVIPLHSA
UniProt Q16610: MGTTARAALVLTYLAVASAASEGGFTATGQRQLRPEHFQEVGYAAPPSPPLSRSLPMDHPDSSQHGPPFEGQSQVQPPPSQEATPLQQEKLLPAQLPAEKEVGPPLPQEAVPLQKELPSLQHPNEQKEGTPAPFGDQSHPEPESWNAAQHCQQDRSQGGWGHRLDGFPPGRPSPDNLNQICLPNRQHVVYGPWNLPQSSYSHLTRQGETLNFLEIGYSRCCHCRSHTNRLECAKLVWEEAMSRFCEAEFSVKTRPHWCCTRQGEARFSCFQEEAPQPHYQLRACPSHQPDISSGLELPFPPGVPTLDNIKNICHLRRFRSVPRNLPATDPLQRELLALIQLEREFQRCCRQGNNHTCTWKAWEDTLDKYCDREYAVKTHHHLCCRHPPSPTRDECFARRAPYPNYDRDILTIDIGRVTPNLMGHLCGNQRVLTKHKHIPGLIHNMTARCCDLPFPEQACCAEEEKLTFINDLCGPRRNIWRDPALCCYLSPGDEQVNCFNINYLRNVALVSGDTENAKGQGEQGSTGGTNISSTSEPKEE
UniProt O75530, whole entry, looked up: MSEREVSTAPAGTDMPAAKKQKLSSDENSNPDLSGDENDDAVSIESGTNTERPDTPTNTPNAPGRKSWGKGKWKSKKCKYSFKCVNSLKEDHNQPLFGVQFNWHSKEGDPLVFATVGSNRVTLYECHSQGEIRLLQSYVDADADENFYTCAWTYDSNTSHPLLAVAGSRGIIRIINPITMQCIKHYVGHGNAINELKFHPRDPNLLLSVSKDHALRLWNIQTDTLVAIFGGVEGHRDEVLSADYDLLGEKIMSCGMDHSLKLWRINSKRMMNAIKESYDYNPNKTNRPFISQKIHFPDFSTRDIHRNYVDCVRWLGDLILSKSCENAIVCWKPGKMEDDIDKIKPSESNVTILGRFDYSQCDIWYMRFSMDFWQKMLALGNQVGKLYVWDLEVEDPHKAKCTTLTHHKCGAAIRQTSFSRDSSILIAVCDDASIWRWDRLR
UniProt Q9NR50: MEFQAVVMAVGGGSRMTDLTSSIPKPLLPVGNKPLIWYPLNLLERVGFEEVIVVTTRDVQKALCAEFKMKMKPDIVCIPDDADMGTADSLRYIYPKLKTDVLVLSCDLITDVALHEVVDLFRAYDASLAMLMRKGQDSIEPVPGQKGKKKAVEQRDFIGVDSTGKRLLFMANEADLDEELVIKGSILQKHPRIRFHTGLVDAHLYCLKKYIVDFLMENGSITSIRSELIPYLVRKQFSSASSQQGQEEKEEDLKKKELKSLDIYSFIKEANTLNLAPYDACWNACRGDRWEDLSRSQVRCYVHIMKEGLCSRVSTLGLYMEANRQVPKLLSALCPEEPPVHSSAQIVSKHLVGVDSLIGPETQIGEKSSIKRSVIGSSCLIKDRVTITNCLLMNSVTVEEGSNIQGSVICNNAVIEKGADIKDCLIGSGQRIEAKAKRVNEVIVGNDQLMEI
UniProt Q13144, whole entry, looked up: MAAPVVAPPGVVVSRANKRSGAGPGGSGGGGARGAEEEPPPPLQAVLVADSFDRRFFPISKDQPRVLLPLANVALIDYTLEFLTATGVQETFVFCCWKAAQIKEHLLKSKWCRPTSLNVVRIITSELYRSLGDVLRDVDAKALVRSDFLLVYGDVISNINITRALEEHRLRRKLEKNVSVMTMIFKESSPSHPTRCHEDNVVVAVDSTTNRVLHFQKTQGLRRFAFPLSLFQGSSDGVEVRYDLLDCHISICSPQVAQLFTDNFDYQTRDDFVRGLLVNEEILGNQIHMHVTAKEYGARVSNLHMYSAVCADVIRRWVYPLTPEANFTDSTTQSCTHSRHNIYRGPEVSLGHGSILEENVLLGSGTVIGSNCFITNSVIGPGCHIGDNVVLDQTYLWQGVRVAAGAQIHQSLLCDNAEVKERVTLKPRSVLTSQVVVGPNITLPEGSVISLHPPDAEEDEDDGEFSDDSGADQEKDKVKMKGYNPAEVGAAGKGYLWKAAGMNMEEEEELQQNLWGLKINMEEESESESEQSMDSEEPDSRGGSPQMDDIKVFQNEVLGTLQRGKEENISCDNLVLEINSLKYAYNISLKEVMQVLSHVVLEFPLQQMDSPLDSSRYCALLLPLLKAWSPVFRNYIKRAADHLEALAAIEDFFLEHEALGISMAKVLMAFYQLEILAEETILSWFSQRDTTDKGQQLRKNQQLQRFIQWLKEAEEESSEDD
UniProt Q9BQ95: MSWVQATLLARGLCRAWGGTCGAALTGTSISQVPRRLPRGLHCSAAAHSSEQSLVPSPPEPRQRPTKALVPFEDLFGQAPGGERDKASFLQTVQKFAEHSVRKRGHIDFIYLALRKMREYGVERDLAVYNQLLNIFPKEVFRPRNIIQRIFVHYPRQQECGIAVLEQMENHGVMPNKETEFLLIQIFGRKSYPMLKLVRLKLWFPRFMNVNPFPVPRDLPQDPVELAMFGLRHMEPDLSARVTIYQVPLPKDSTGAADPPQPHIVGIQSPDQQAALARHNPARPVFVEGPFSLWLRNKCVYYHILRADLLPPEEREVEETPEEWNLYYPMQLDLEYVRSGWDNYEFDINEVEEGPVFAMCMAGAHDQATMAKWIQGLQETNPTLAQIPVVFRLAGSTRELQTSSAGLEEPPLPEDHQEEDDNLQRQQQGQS

Compound in the experiment: CC1Cc2ccccc2N1C(=O)C1CCCN(C1)C(=O)CCl (mixture of isomers) [TRIM25 ligand 11 (diastereomer mixture)]
The experiment is described as follows: probe-labelled cysteine peptide fold change vs DMSO (competition) (log2 fold change); higher = less target engagement (more negative = stronger competition). Particulars: THP-1, incubation time: 4 h.

The list shows a part of the results.
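Further: competitive chemoproteomic profiling in live THP-1 cells with an iodoacetamide desthiobiotin (IA-DTB) probe, comparing probe-labelled peptide intensities in compound-treated cells against DMSO-treated controls.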

As to “EGLN1_Q9GZT9_208_HGICVVDDFLGK (UniProt Q9GZT9)”, the “probe-labelled cysteine peptide fold change” value (10 µM) was -0.11 and the “probe-labelled cysteine peptide fold change” value (50 µM) was -0.17.

For the target “EIF1AD_Q8N9N8_89_AEISFVLCK (UniProt Q8N9N8)”, the “probe-labelled cysteine peptide fold change” value reads like this: (10 µM) 0.054; (50 µM) 0.00318.

For “EDC3_Q96F86_272_EFCTDSGLVVPSISYELHK (UniProt Q96F86)”, the “probe-labelled cysteine peptide fold change” value reads like this: (10 µM) -0.126; (50 µM) 0.00328.

On to “ECM1_Q16610_259_TRPHWCCTR (UniProt Q16610)”, for which the “probe-labelled cysteine peptide fold change” value (10 µM) was 0.0561 and the “probe-labelled cysteine peptide fold change” value (50 µM) came out at 0.108.

As for “EED_O75530_401_CTTLTHHK (UniProt O75530)”, the “probe-labelled cysteine peptide fold change” value is -0.0891 (10 µM) and -0.141 (50 µM).

Consider “EFTUD2_Q15029_476_IEHTYTGGVDSDLGEAMSDCDPDGPLMCHTTK (UniProt Q15029)”, for which the “probe-labelled cysteine peptide fold change” value is -0.11 (10 µM) and -0.51 (50 µM).

For “EIF2B3_Q9NR50_379_SVIGSSCLIK (UniProt Q9NR50)”, the “probe-labelled cysteine peptide fold change” value reads like this: (10 µM) -0.0283; (50 µM) -0.007.

Turning to “EIF2B5_Q13144_196_CHEDNVVVAVDSTTNR (UniProt Q13144)”, the “probe-labelled cysteine peptide fold change” value came out at 0.0445 (10 µM) and 0.0258 (50 µM).

Regarding “EED_O75530_361_FDYSQCDIWYMR (UniProt O75530)”, the “probe-labelled cysteine peptide fold change” value reads like this: (10 µM) 0.222; (50 µM) 0.127.

As to “ECSIT_Q9BQ95_299_CVYYHILR (UniProt Q9BQ95)”, the “probe-labelled cysteine peptide fold change” value (10 µM) is -0.0582 and the “probe-labelled cysteine peptide fold change” value (50 µM) was found to be 0.0964.

Turning to “EDC3_Q96F86_137_SQDVAVSPQQQQCSK (UniProt Q96F86)”, the “probe-labelled cysteine peptide fold change” value reads like this: (10 µM) 0.292; (50 µM) -0.391.
